Molecules are shown by their SMILES. The list does not hold the whole screen: it is rich in T/C values a quarter to a half above the control, in often repeated tests (any T/C) and in doses without a T/C. Other doses and runs of a compound stand elsewhere. T/C gives the treated animals as a percentage of the vehicle group. Some doses have a count of surviving animals in place of a T/C: the source files T/C as zero there, which appears to mark a toxic dose or a test without result, not a measured value. Some doses without a T/C left all or most animals alive at the check, yet need not have been tolerated: survival well below the control is almost never listed, so the zero probably covers shortened survival too. Counts of survivors are from the toxicity check (mostly the fifth day) where no day follows; animals may have died later. Schedule codes are those of the source, read here as Q, the interval in days (D) or hours (H), X, the number of doses.

This experiment relates to CD2F1 mice, L1210 leukemia ip, survival T/C. Briefly: NCI In Vivo Anticancer Drug Screen. Data for tumor model L1210 Leukemia (intraperitoneal) in CD2F1 (CDF1) mice. The following applies: T/C endpoint: mean survival time, higher T/C = longer survival. The essentials:
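In this screen, transplantable tumors were grown in mice given either the compound or its vehicle. Results were expressed as the treated measurement relative to the control measurement.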

Where [1] appears, read: dose: 200.0 mg/kg/injection, schedule: Q01DX009 (ip), vehicle: saline with Tween-80.
Where [2] appears, read: dose: 400.0 mg/kg/injection, schedule: Q01DX009 (ip), vehicle: saline with Tween-80.
The mark [3] stands for this setting: dose: 400.0 mg/kg/injection, schedule: Q04DX003 (ip), vehicle: saline with Tween-80.
Setting [4] is: dose: 200.0 mg/kg/injection, schedule: Q01DX001 (ip), vehicle: saline with Tween-80.
Where [5] appears, read: dose: 200.0 mg/kg/injection, schedule: Q04DX003 (ip), vehicle: saline with Tween-80.

With `Cc1cc([N+](=O)[O-])ccc1NC(=S)NC(=O)COc1ccccc1`, the survivor count is, setting by setting: under setting [1], 6 of 6; under setting [2], 3 of 3; (dose: 400.0 mg/kg/injection, schedule: Q04DX002 (ip), vehicle: saline with Tween-80) 3 of 3.

As for `O=C(CC(=O)OCc1ccc([N+](=O)[O-])cc1)OCc1ccc([N+](=O)[O-])cc1`, the survivor count (dose: 100.0 mg/kg/injection, schedule: Q01DX001 (ip), vehicle: Klucel (hydroxypropylcellulose) (HPC)) is on record as 3 of 3.

For `Cc1ccc(Cl)cc1[NH-].Cc1ccc(Cl)cc1[NH-].[Cl][Pt+2][Cl]`, under setting [3], the survivor count is reported as 0 of 6. Consider `CC(=O)OC/C(=N\Nc1ccc([N+](=O)[O-])cc1[N+](=O)[O-])c1ccccc1`, for which the survivor count is, setting by setting: (dose: 12.5 mg/kg/injection, schedule: Q01DX001 (ip), vehicle: saline with Tween-80) 6 of 6; under setting [4], 6 of 6. As to `O=[N+]([O-])c1ccc(SSc2ccc([N+](=O)[O-])cn2)nc1`, the survivor count reads like this: under setting [1], 2 of 6; under setting [3], 1 of 6. As to `CCn1c2[n+](c3ccccc31)CCC2`, the survivor count was 2 of 6 (dose: 75.0 mg/kg/injection, schedule: Q01DX001 (ip), vehicle: saline); 0 of 6 (dose: 150.0 mg/kg/injection, schedule: Q01DX001 (ip), vehicle: saline); 2 of 6 (dose: 300.0 mg/kg/injection, schedule: Q01DX001 (ip), vehicle: saline). For the compound `O=S1(=O)C2CCC(C2)C1Cl` (stereo not drawn), the survivor count under setting [5] was 2 of 6 and the survivor count under setting [3] is recorded as 0 of 6. For the compound `C1=CC2C3C=CC(CC3)C2CC1` (stereo not drawn), under setting [2], the survivor count was 0 of 6. Consider `O=[N+]([O-])c1ccc(CSC2=NCCN2)cc1`, for which the survivor count (dose: 200.0 mg/kg/injection, schedule: Q01DX009 (ip), vehicle: saline) is on record as 0 of 6 and the survivor count (dose: 400.0 mg/kg/injection, schedule: Q01DX009 (ip), vehicle: saline) is listed as 0 of 6. As to `C=CCOCC(O)CN(CCCC)CCCC` (stereo not drawn), the survivor count is recorded as 0 of 6 under setting [5] and 0 of 6 under setting [3]. For `C=CCSc1cccc(C)c1`, the survivor count (dose: 400.0 mg/kg/injection, schedule: Q01DX001 (ip), vehicle: saline) is given as 3 of 6. On to `Fc1ccc(Nc2c3ccccc3nc3ccccc23)cc1`, for which the survivor count is given as 2 of 6 under setting [1] and 0 of 6 under setting [2]. Regarding `N=c1sc2ccccc2n1CC(=O)O`, the survivor count by setting is: under setting [4], 2 of 6; (dose: 400.0 mg/kg/injection, schedule: Q01DX001 (ip), vehicle: saline with Tween-80) 3 of 6. For the compound `C=C1C(=O)OC2CC(C)C3CC(O)OC(O)C3(C)CC12` (stereo not drawn), the survivor count (dose: 25.0 mg/kg/injection, schedule: Q01DX005 (ip), vehicle: water) is recorded as 3 of 6.

As to `CC(C)(C)C1CC(C(F)(F)F)(C(F)(F)F)OS(=O)O1` (stereo not drawn), the survivor count is reported as 6 of 6 (dose: 100.0 mg/kg/injection, schedule: Q04DX003 (ip), vehicle: saline with Tween-80); 1 of 6 under setting [5]; 0 of 6 under setting [3].

The values above are taken from PubChem BioAssay AID256 (DTP/NCI, 2004).
